The source of these data is paper PMC2394298.

For data set [1], the target named is T1, NF-kB p50 homodimer (UniProt P19838).
T1 sequence (looked up, limits assumed): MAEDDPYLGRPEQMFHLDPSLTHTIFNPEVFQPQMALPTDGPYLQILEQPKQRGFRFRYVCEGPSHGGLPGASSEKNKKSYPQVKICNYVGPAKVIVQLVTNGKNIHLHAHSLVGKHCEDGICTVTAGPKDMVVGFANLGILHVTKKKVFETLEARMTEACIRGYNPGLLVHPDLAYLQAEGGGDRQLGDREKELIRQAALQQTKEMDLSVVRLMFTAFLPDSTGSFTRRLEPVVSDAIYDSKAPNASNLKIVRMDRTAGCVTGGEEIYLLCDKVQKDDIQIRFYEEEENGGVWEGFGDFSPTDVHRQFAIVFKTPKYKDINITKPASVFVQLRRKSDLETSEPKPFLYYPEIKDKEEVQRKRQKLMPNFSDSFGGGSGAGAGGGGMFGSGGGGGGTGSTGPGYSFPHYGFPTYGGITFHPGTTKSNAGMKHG
The data set is described as follows: EMSA supershift. Conditions: control and NS-398-treated (50 uM, 96 h) HT-29 nuclear extract, increased by NS-398; 1 mM MgCl2, 1 mM KCl, 7.5% Ficoll, 8.5 mM HEPES (pH not given), 1 mM DTT, 1 mg/ml BSA, 1-4 ug poly(dI-dC), 1-4 ug nuclear extract, 20 ul, room temperature; protein in an extract; label: 32P 5' end label. For orientation: Mobility shift assays separate free from complexed probe on a gel.

The target in data set [2] is T1, NF-kB p50 homodimer. Put plainly: competition with a labelled probe. Conditions: excess unlabelled AP-1 oligo did not inhibit NF-kB binding to N1, unlabelled N1 did, dimer assigned from Figure 3; 1 mM MgCl2, 1 mM KCl, 7.5% Ficoll, 8.5 mM HEPES (pH not given), 1 mM DTT, 1 mg/ml BSA, 1-4 ug poly(dI-dC), 1-4 ug nuclear extract, 20 ul, room temperature; protein in an extract; label: none (unlabelled competitor).

Results from cells or extracts need not show a direct contact. For some assays here: Negatives hold for the conditions tested. For some assays here: At least one verdict was read from the data and is not stated in words by the source. Where a protein sequence is shown, tags need not be part of it. For some assays here: Construct, isoform or probe ends are uncertain for at least one entry.

With “AGTTGAGGGGACTTTCCCAGGC (double strand) [NF-kB consensus oligonucleotide (Promega)]”, the binding result in data set [1] is “binds”.
Regarding “CGCTTGATGAGTCAGCCGGAA (double strand) [AP-1 oligonucleotide (Promega)]”, the binding result in data set [2] is recorded as “no binding”.
